Reference: article PMC9809949
Changes are numbered by the printed parent chain. Results are given in words; binding and its absence hold for the method and conditions named. In cells and extracts the contact can be indirect. Some binding calls cover weakened binding; strength is not graded here. For part of these data: Tags and fused reporters may be left off the sequences shown. Blank lines part the entries; values can stand above or below the molecule they belong to.

Amino acid sequences for entries named in this document (tags omitted). Residues count along the entry.
UniProt P08195, residues 102-630: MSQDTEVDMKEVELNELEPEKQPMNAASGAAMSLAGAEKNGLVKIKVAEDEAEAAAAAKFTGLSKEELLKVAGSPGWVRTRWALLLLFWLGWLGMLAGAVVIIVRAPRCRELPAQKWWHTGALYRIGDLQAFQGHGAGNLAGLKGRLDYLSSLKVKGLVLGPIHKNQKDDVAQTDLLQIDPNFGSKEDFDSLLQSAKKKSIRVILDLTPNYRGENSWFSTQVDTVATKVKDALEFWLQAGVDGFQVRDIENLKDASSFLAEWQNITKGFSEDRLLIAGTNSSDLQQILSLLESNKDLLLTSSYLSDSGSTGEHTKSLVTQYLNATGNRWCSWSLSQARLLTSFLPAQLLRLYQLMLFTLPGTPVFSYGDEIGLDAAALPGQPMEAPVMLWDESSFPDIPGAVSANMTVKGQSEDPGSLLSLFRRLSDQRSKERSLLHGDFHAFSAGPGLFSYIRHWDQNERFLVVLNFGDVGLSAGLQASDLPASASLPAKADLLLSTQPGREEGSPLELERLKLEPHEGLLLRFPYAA
UniProt P10852: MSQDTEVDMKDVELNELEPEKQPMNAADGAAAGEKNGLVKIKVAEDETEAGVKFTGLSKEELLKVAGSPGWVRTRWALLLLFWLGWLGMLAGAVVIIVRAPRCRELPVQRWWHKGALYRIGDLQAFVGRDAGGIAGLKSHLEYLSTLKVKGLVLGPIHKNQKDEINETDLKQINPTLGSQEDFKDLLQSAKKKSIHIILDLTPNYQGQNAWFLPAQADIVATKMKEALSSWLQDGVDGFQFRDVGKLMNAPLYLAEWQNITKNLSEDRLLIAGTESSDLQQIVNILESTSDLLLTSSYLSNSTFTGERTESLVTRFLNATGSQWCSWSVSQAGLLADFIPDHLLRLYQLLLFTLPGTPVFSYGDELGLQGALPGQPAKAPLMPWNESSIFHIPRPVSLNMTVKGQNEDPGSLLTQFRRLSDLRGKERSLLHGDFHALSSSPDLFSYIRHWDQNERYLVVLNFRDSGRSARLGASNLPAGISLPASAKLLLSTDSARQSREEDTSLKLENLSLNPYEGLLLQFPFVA

Key:
[1] = target: T1, FLAG-DNAJC5/CSPα WT (UniProt Q9H3Z4); experiment: co-IP; FLAG M2 agarose beads incubated with lysates containing tagged DNAJC5 for 1 h at 4°C; endogenous SLC3A2 detected by immunoblotting
T1 sequence: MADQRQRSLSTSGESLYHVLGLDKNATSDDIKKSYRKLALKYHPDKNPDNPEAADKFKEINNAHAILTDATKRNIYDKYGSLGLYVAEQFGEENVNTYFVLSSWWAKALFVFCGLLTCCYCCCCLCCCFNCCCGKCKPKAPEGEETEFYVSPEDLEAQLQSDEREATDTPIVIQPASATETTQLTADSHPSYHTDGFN

[2] = target: SLC3A2::GFP (GFP tag at the endogenous SLC3A2 locus) (human (endogenous in HEK293T)) (UniProt P08195); experiment: co-IP; GFP-Trap beads on lysates of SLC3A2::GFP cells transfected with DNAJC5 variants, 1 h at 4°C; DNAJC5 detected by immunoblotting and normalised to DNAJC5 in lysates
[3] = target: SLC3A2 (endogenous, mouse primary neurons) (mouse (endogenous in primary neurons)) (UniProt P10852); experiment: co-IP; endogenous proteins, mouse cortical neuron lysates in CHAPS or NP40 lysis buffer; SLC3A2 antibody or rabbit IgG overnight at 4°C, protein A beads; immunoblotting

binding [1]: binds
Molecule: SLC3A2/CD98hc (endogenous) (from UniProt P08195 1-529)

binding [2]: binds
B1: FLAG-DNAJC5/CSPα WT (protein, UniProt Q9H3Z4 1-198)
chain: T1 sequence

binding [3]: binds
B2: DNAJC5 (endogenous, mouse primary neurons) (protein, UniProt P60904 1-198)
chain: T1 sequence with F112V
